Reference: PubChem BioAssay AID1347075 (National Center for Advancing Translational Sciences (NCATS), 2019)
Among all 400,000 compounds or so, about 5,500 (1.4%) were called active. Inconclusive results, whose numbers are uncertain, are shown with a selection of clear calls. Calls follow the shape of the dose curve; as a rule, active = well fitted cell-killing curve with a large enough effect; inconclusive = small, poorly fitted or top-dose-only effect, or effect the other way; inactive = flat fitted curve, though single readings scatter. A potency beside an inconclusive call is a rough fit, not a confirmed value.

Assay: qHTS assay for MDR1-selective chemotherapeutics: Primary screen using the parental adenocarcinoma cell KB-3-1; also: nearly all actives have a fitted effect of over 60% in size
Conditions: KB-3-1 viability, CellTiter-Glo ATP luminescence, 72 h; series mostly up to 46.1 µM
In short: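 KB-3-1 parental drug-naive adenocarcinoma cells in DMEM/10% FBS, incubated 72 h at 37 C with pin-transferred compounds across a concentration series. Viability by CellTiter-Glo luminescence; concentration-response curves fitted after normalization.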
Potency is read from the fitted curve at half-maximal effect.

**Q.** For `CC(=NNC(N)=S)c1ccc2cc3c(cc2c1)OCO3`, which Potency is on record?
**A.** inconclusive: 0.461 µM [cytotoxic, partial curve, poor fit]

**Q.** With `Cc1noc(C)c1NC(=O)Nc1cccc2c1O[C@@H](CN(C)C(=O)Nc1ccc3c(c1)OCO3)[C@@H](C)CN([C@H](C)CO)C2=O` as the compound, how does the Potency read?
**A.** inactive

**Q.** With `Cc1cc(=O)cc(C)n1-c1ccc2c(c1)nc(C)n2-c1ccccc1` as the compound, how does the Potency read?
**A.** inconclusive: 29.1 µM [cytotoxic, single point]

**Q.** With `CN(CC(=O)Nc1cccc(F)c1)C(=O)Cn1cnc2c1c(=O)n(C)c(=O)n2C` as the compound, how does the Potency read?
**A.** inactive

**Q.** Which Potency does the source give for `CCOc1cccc(C(=O)Nc2ccccc2N2CCN(C(=O)C(C)C)CC2)c1` here?
**A.** inactive

**Q.** For `Cc1ccccc1-c1nnc(SCC(=O)NC2CCCC2)n1C`, which Potency is on record?
**A.** inconclusive: 2.06 µM [cytotoxic, partial curve, poor fit]

**Q.** With `COc1cc(/C=N/NC(=O)CCc2c(C)n[nH]c2C)cc(OC)c1OC` as the compound, how does the Potency read?
**A.** inconclusive: 10.3 µM [rising, partial curve, poor fit]

**Q.** Which Potency does the source give for `CN(CCOc1ccc(Cl)cc1)Cc1cccc(S(=O)(=O)N(C)C)c1` here?
**A.** active: 20.6 µM

**Q.** For `CCCCNC(=O)C1(C)CCCCN1C(=O)c1cccc(OC(F)(F)F)c1` (stereo unspecified), which Potency is on record?
**A.** inconclusive: 23.1 µM [cytotoxic, single point]

**Q.** Which Potency does the source give for `COc1ccccc1N1CCN(C(=O)c2[nH]c(C(F)(F)F)nc2-c2ccccc2)CC1` here?
**A.** active: 5.8 µM

**Q.** With `N#CCCn1cc(/C=N/O)c(-c2ccc(Cl)cc2)n1` as the compound, how does the Potency read?
**A.** inactive

**Q.** With `CC(=O)Nc1ccc(S(=O)(=O)N(C)CC(=O)OC(C)C(=O)NC2(C#N)CCCCC2)cc1` (stereo unspecified) as the compound, how does the Potency read?
**A.** inactive

**Q.** For `Cn1c(=O)c2c(nc(NCc3ccccc3)n2Cc2ccc(Cl)c(Cl)c2)n(C)c1=O`, which Potency is on record?
**A.** inconclusive: 20.6 µM [cytotoxic, partial curve, poor fit]

**Q.** Which Potency does the source give for `Cc1c(NC(=O)COc2ncnc3ccccc23)c(=O)n(-c2ccccc2)n1C` here?
**A.** inactive

**Q.** Which Potency does the source give for `Cc1ccc(-n2cc(CN3CCC(CO)(Cc4cccc(C(F)(F)F)c4)CC3)cn2)cc1` here?
**A.** inconclusive: 29.1 µM [cytotoxic, single point]

**Q.** With `COc1cccc(-n2c(SCc3cc(=O)oc4cc(O)c(O)cc34)nc3ccccc3c2=O)c1` as the compound, how does the Potency read?
**A.** inactive

**Q.** For `CC(=NNc1nc2ccccc2o1)c1cc2ccccc2cn1`, which Potency is on record?
**A.** inconclusive: 0.517 µM [cytotoxic, full curve, poor fit]

**Q.** With `COc1ccccc1-n1cnnc1SC(C)C(=O)Nc1cccc([N+](=O)[O-])c1` (stereo unspecified) as the compound, how does the Potency read?
**A.** inconclusive: 29.1 µM [rising, single point]

**Q.** Which Potency does the source give for `COc1ccc(Nc2nc(N3CCOCC3)nc(N3CCOCC3)n2)cc1Cl` here?
**A.** inactive

**Q.** Which Potency does the source give for `CC(C)(C)c1ccc(-n2nc(C#N)c(Cl)cc2=O)cc1` here?
**A.** inconclusive: 29.1 µM [cytotoxic, single point]

**Q.** Which Potency does the source give for `CCN(CC)c1ccc(C(=O)N/N=C(\C)c2ccc(OC)c(OC)c2)cc1` here?
**A.** inconclusive: 29.1 µM [rising, single point]

**Q.** For `CCN(CC)CCNC(=O)c1ccc(NC(=O)c2ccc(-n3cncn3)c([N+](=O)[O-])c2)cc1`, which Potency is on record?
**A.** inactive

**Q.** Which Potency does the source give for `CCn1c(=O)c(C(=O)NNC(=O)c2ccccc2Br)c(O)c2ccccc21` here?
**A.** inconclusive: 23.1 µM [cytotoxic, single point]

**Q.** For `Nc1nnc(SCc2nc3scc(-c4ccccc4)c3c(=O)[nH]2)s1`, which Potency is on record?
**A.** inconclusive: 25.9 µM [cytotoxic, single point]

**Q.** Which Potency does the source give for `COc1cccc(C(=O)Cn2c(NCCO)nc3ccccc32)c1` here?
**A.** inactive

**Q.** Which Potency does the source give for `FC(F)(F)c1nnc2c3ccccc3c(Cl)nn12` here?
**A.** inconclusive: 29.1 µM [cytotoxic, single point]

**Q.** For `Cc1cccnc1C(NC(=O)C1CCN(Cc2ccccc2)CC1)c1ccc(F)cc1` (stereo unspecified), which Potency is on record?
**A.** inconclusive: 18.4 µM [cytotoxic, single point]

**Q.** For `COc1ccc(-c2cc(NC(C)=O)c3ncc(-c4cccc(C(C)=O)c4)n3c2)cc1OC`, which Potency is on record?
**A.** inactive

**Q.** Which Potency does the source give for `COc1cccc(C2NC(=S)NC(C)=C2C(=O)c2ccccc2)c1OC` (stereo unspecified) here?
**A.** active: 1.84 µM

**Q.** With `CCOc1cc(/C=C2/SC(=Nc3ccccc3)N(Cc3cccnc3)C2=O)ccc1OCC#N` as the compound, how does the Potency read?
**A.** inconclusive: 32.6 µM [cytotoxic, partial curve, poor fit]

**Q.** Which Potency does the source give for `Cn1nnnc1Sc1ncnc2scc(-c3ccccc3C(F)(F)F)c12` here?
**A.** active: 16.4 µM

**Q.** For `Cc1cc(C)c(S(=O)(=O)N2CCN(C(=O)c3c(C)nn(-c4ccccc4)c3Cl)CC2)c(C)c1`, which Potency is on record?
**A.** inconclusive: 29.1 µM [cytotoxic, single point]

**Q.** For `Cc1cc(=O)oc2cc(NC(=O)Cc3ccccc3)ccc12`, which Potency is on record?
**A.** inconclusive: 18.4 µM [cytotoxic, single point]

**Q.** Which Potency does the source give for `COc1ccc(OC)c(/C=C2\C=Cc3ccccc32)c1` here?
**A.** inconclusive: 29.1 µM [cytotoxic, single point]

**Q.** For `COc1ccc(-c2csc(NC(=O)CSc3n[nH]c(N)n3)n2)cc1`, which Potency is on record?
**A.** inconclusive: 29.1 µM [cytotoxic, partial curve, poor fit]

**Q.** For `Cc1cc(C)c(C)c(S(=O)(=O)N2CCC(C(=O)NCC(c3ccccc3)N(C)C)CC2)c1C` (stereo unspecified), which Potency is on record?
**A.** inactive

**Q.** For `O=C(CCS(=O)(=O)c1ccccc1)Nc1nc2c(s1)CCCC2`, which Potency is on record?
**A.** inconclusive: 29.1 µM [cytotoxic, single point]

**Q.** For `C#CCOCCOCCOCCNc1nc(N2CCN(C(=O)[C@H](CCCCN)n3cc([C@@H](N)C(C)CC)nn3)CC2)nc(N2CCN(C(=O)[C@H](Cc3cc4ccccc4[nH]3)n3cc([C@@H](N)C(C)CC)nn3)CC2)n1` (stereo partly specified), which Potency is on record?
**A.** inconclusive: 25.9 µM [rising, partial curve, poor fit]

**Q.** With `CCOc1ccc(CN(C)CC(O)COC(c2ccc(OC)cc2)c2ccc(OC)cc2)cc1` (stereo unspecified) as the compound, how does the Potency read?
**A.** inconclusive: 18.4 µM [cytotoxic, single point]

**Q.** With `CCNc1oc(-c2cccc3ccccc23)nc1C#N` as the compound, how does the Potency read?
**A.** inactive

**Q.** Which Potency does the source give for `CCN(CC)CCOCCOC(=O)C1(c2ccccc2)CCCC1` here?
**A.** inconclusive: 20.6 µM [cytotoxic, partial curve, poor fit]

**Q.** Which Potency does the source give for `COc1ccc2[nH]c(=O)c(CN(CC3CCCO3)C(=S)Nc3ccccc3)cc2c1` (stereo unspecified) here?
**A.** inactive

**Q.** For `O=[N+]([O-])c1ccc(CN2CCCCCC2)s1`, which Potency is on record?
**A.** active: 23.1 µM

**Q.** Which Potency does the source give for `CCOc1ccccc1NC(=O)C(=O)NCC(c1cccnc1)N1CCN(c2ccccc2)CC1` (stereo unspecified) here?
**A.** inconclusive: 29.1 µM [cytotoxic, single point]

**Q.** With `CC1C=CC=CC=CC=CC=CC=CC=CC(OC2OC(C)C(O)C(N)C2O)CC2OC(O)(CC(O)CC(O)C(O)CCC(O)CC(O)CC(=O)OC(C)C(C)C1O)CC(O)C2C(=O)O` (stereo unspecified) as the compound, how does the Potency read?
**A.** active: 4.11 µM

**Q.** Which Potency does the source give for `Cc1oc2c(c1C(=O)NCc1cccnc1)C(=O)c1ccccc1C2=O` here?
**A.** inconclusive: 0.651 µM [cytotoxic, full curve, poor fit]

**Q.** Which Potency does the source give for `Cc1ccc(NS(=O)(=O)c2cccs2)c(C)c1` here?
**A.** inconclusive: 0.184 µM [rising, full curve, poor fit]

**Q.** With `COc1ccc(C[C@H]2CN3C(=NC[C@@H]3Cc3ccc(O)cc3)N2C[C@H](C)NC(=O)c2ccc(C)c(Br)c2)cc1` as the compound, how does the Potency read?
**A.** inconclusive: 29.1 µM [cytotoxic, single point]

**Q.** With `COc1ccc(C(C(=O)NCc2ccccc2)n2c(=O)c(-c3ccco3)nc3ccccc32)cc1` (stereo unspecified) as the compound, how does the Potency read?
**A.** inconclusive: 29.1 µM [cytotoxic, single point]

**Q.** Which Potency does the source give for `CCCCN1C(=O)/C(=C2\SC(N3CCCCC3)=NC2=O)c2ccccc21` here?
**A.** inconclusive: 29.1 µM [cytotoxic, single point]

**Q.** For `COc1ccnc(CSC(N)=Nc2ccccc2OC)c1`, which Potency is on record?
**A.** inconclusive: 35.5 µM [cytotoxic, single point]

**Q.** Which Potency does the source give for `O=[N+]([O-])c1cc(S(=O)(=O)Oc2ccccc2)ccc1Cl` here?
**A.** inconclusive: 29.1 µM [cytotoxic, single point]

**Q.** With `CCOC(=O)n1c(=O)n(Cc2ccc(Cl)cc2Cl)c2ccccc21` as the compound, how does the Potency read?
**A.** inconclusive: 20.6 µM [cytotoxic, partial curve, poor fit]

**Q.** Which Potency does the source give for `CCC(C)(c1nnnn1-c1c(C)cccc1C)N(N=O)c1ccccc1Cl` (stereo unspecified) here?
**A.** inconclusive: 29.1 µM [cytotoxic, single point]

**Q.** With `CCc1ccc(CN2CCCC(C(=O)N3CCCCC3)C2)cc1` (stereo unspecified) as the compound, how does the Potency read?
**A.** inactive

**Q.** For `CCCNC(=O)c1ccccc1NC(=O)c1ccc(CSc2ccccc2)cc1`, which Potency is on record?
**A.** inactive

**Q.** With `Cc1ccc(S(=O)(=O)/N=C(/c2ccc(F)cc2)N2CCCCC2)cc1` as the compound, how does the Potency read?
**A.** inconclusive: 3.26 µM [rising, full curve, poor fit]

**Q.** Which Potency does the source give for `CCCN(CCC)CCNC(=O)Cn1cnc2sc(C)c(S(=O)(=O)N3CCN(c4ccccc4OC)CC3)c2c1=O` here?
**A.** inactive

**Q.** Which Potency does the source give for `Cc1ccc(CNC(=O)C2CC(c3cccc([N+](=O)[O-])c3)=NO2)o1` (stereo unspecified) here?
**A.** inconclusive: 29.1 µM [cytotoxic, single point]

**Q.** Which Potency does the source give for `FC(F)Oc1ccccc1/C=N/n1cnc2ccccc21` here?
**A.** inconclusive: 1.3 µM [rising, full curve, poor fit]

**Q.** For `CCOc1ccc(-n2c(SCC(=O)N3CCCc4ccccc43)nc3c([nH]c4ccccc43)c2=O)cc1`, which Potency is on record?
**A.** inactive

**Q.** For `O=C(c1cnn2c(C(F)(F)F)cc(-c3ccco3)nc12)N1CCCCCC1`, which Potency is on record?
**A.** inconclusive: 18.4 µM [cytotoxic, single point]

**Q.** Which Potency does the source give for `CCCOP(=O)(OCCC)C(Nc1cccc(C(F)(F)F)c1)c1ccc(C)cc1` (stereo unspecified) here?
**A.** inconclusive: 29.1 µM [cytotoxic, single point]

**Q.** Which Potency does the source give for `COc1ccc(N2CCN(C(=O)C(=O)c3cn(CC(=O)N4CCCC4)c4ccccc34)CC2)cc1` here?
**A.** inconclusive: 29.1 µM [cytotoxic, single point]

**Q.** With `CCOC(=O)c1[nH]c(C)c(C(=O)NCCc2ccccc2)c1C` as the compound, how does the Potency read?
**A.** inactive

**Q.** With `Cc1nn(-c2ccccc2)c2sc(C(=O)N(CC(=O)NC3CCCC3)Cc3ccco3)cc12` as the compound, how does the Potency read?
**A.** inconclusive: 23.1 µM [cytotoxic, single point]
